{"source": "the supplement of paper PMC4604168 (melanoma cell lines)", "note": "The other results are listed elsewhere or left out. Repeats are few or missing, and single values can be far off.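 Imaging used 1,536-well plates; nuclei positive for cleaved PARP by antibody were divided by total DNA-stained nuclei to yield the apoptosis fraction. Doses for screening kept most cells viable, and cell lines differ markedly in resting and induced cleaved-PARP levels.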", "data": [{"system": "SkMel5", "assay": "cleaved PARP positive nuclei fraction relative to DMSO control; melanoma cells; higher = more apoptosis", "conditions": "library dose: low library concentration; 72 h", "units": {"cleaved PARP positive nuclei fraction": "%"}, "values": [{"smiles": "Cc1nc(Nc2ncc(C(=O)Nc3c(C)cccc3Cl)s2)cc(N2CCN(CCO)CC2)n1", "note": "[dasatanib] + Oc1nc(-c2ccc(C(F)(F)F)cc2)nc2c1CSCC2 [XAV939] (first compound 0.004 µM, partner dose 2 µM)", "cleaved PARP positive nuclei fraction": 31.8}, {"smiles": "Cn1cncc1[C@@](N)(c1ccc(Cl)cc1)c1ccc2c(c1)c(-c1cccc(Cl)c1)cc(=O)n2C", "note": "[tipifarnib] + Oc1cc(-c2nc(-c3ccccc3)[nH]c2-c2ccncc2)ccc1Cl [L779450] (first compound 0.01 µM, partner dose 0.2 µM)", "cleaved PARP positive nuclei fraction": 60.2}, {"smiles": "O=C(CCCCCCC(=O)Nc1ccccc1)NO", "note": "[vorinostat] + COc1ccc(COc2ccc(Cc3cnc(N)nc3N)cc2OC)cc1 [GW2580] (first compound 0.08 µM, partner dose 1 µM)", "cleaved PARP positive nuclei fraction": 29.1}, {"smiles": "O=C(CCCCCCC(=O)Nc1ccccc1)NO", "note": "[vorinostat] + COc1cc(N2CCC(N3CCN(C)CC3)CC2)ccc1Nc1ncc(Cl)c(Nc2ccccc2S(=O)(=O)C(C)C)n1 [NVP-TAE684] (first compound 0.08 µM, partner dose 0.08 µM)", "cleaved PARP positive nuclei fraction": 32.8}, {"smiles": "OCCn1cc(-c2cnc3nnn(Cc4ccc5ncccc5c4)c3n2)cn1", "note": "+ Oc1nc(-c2ccc(C(F)(F)F)cc2)nc2c1CSCC2 [XAV939] (first compound 1 µM, partner dose 2 µM)", "cleaved PARP positive nuclei fraction": 147}, {"smiles": "Cn1nnc2c(C(N)=O)ncn2c1=O", "note": "[temozolomide] + COc1ccc(COc2ccc(Cc3cnc(N)nc3N)cc2OC)cc1 [GW2580] (first compound 2 µM, partner dose 1 µM)", "cleaved PARP positive nuclei fraction": 83.4}]}]}
